The other results are listed elsewhere or left out.
B1: il2ra_site1_2b5i_sap_10_mot_HHH_b1_06833_000000178_0001_1_19_H_._HHH_b1_04646_af2_0001_0000200012_0000001_0_0001_af2pred_dldesign_0_af2pred (protein)
chain: SSSSSSSDSVEDTVQAYIDEARKLEDKELAKKILRLALRLAKKANNPELIAKVEAVLKELSSSSS
B2: il2ra_site1_3nfp_normal_mot_46d73865503fbedcaf0f3a45445d594c_0001_af2_000000151_0001_1_12_H_._HEEHE_1580_af2_0001_0000600011_0000001_0 (protein)
chain: SAEEDIKRAAEKIAEWIGIPSIEIEVHNGEVTVHINGTDNDARVAARLIRQAAESLGVPLTVHLE
B3: il2ra_site1_2b5i_sap_18_mot_89dc1dc23437faef961419e82e151d9c_0001_af2_000000202_0001_15_32_H_._9f08b0091ee0dae2b2d48aa630d4ec63_0001_1_0001_0000400022_0000001_0 … (protein)
chain: SSSSSVEETLEAYEKEAKKLIEEGKKEEAKKILLLGIRFARKHGLPERVERLEKLLKELESSSSS
B4: il2ra_site2_2erj_normal_mot_HHH_b1_00941_000000060_0001_45_58_H_._HHH_b2_06018_0001_0000100008_0000001_1 (protein)
chain: SSSSSDLRELFELLNELDRLVYEGDEEEAQKLIEEIRRLAEELNSENAEEALRFLEEQLNSSSSS
B5: il2ra_site1_2b5i_sap_20_mot_HHH_b1_01540_000000292_0001_42_56_H_._HHH_b1_05417_af2_0001_0000100005_0000001_0_0001_af2pred_0001_af2pred_1 (protein)
chain: SSSSDDFEKVLELYREASKLFRNGNPEEARELLEEALRIAEEGGDPKLAEQVEHMLKLLSSSSSS
B6: il2ra_site1_2b5i_sap_13_mot_0e5a94e4a5addaac739760efb25f0f5d_0001_000000246_0001_18_32_H_._HHH_b1_00333_af2_0001_0000100004_0000001_0_0001_af2pred_dldesign_0_af … (protein)
chain: DPEIDEIKETLVALGHNLAARILKLLRKMAERGDEEAKKTLEEILELAKKDPEAAAAYLLNLNKE
B7: il2ra_site2_2erj_sap_13_mot_HHH_b1_01540_af2_000000184_0001_42_54_H_._HHH_b1_06494_0001_0000300007_0000001_0_0001 (protein)
chain: SSSSDELHRLYELAVLLMHLVARNDREEFEEVVREAEELAEKLNSESAKEAIEQAERLLGSSSSS
B8: il2ra_site1_3nfp_sap_25_mot_HHH_b2_07336_000000189_0001_1_16_H_._202528fb31f71a18f660cfa3f1cee511_0001_1_af2_0001_0000400024_0000001_0_0001_af2pred_0001_1_af2pr … (protein)
chain: SSSSSDEREEVEKLLEEAKEIEDPKEANRVIREAAKIAHEAGNPELKRLVEKVMRELAKSSSSSS
B9: il2ra_site2_3nfp_normal_mot_HHH_b2_00429_000000100_0001_21_37_H_._HHH_b1_00283_af2_0001_0000300031_0000001_1 (protein)
chain: SSSSDEEARELAEQAEELAKRGDDEEVRKLLQHAVEIAYELRNHELFAFVADVAYKLYQLKSSSS
B10: il2ra_site2_2erj_sap_20_mot_HHH_b1_06777_000000153_0001_1_20_H_._HHH_b1_00201_af2_0001_0000300003_0000001_0_0001 (protein)
chain: SSSSSDEYRELYELLNELMRLVEEGDEEEIERVAEEAREVAEKLQSEATKRVIEHLLRLYSSSSS
B11: il2ra_site1_1z92_normal_mot_HHH_b1_01245_000000029_0001_23_39_H_._HHH_b1_01554_af2_0001_0000200014_0000001_0_af2pred_0001_af2pred (protein)
chain: SSSSSSERDARIIVRMAVRAAELSEEQEEKLQELAEELVKRGYSFEEISRILDKIAAELHSSSSS
B12: il2ra_site1_3nfp_sap_7_mot_HHH_b1_00258_000000025_0001_42_56_H_._HHH_b2_02295_af2_0001_0000700036_0000001_0_0001_af2pred_0001_af2pred_swapped (protein)
chain: SSSSSAELAKEVDELYKEARKLLEEGDDEKVEELIRLMEEILEKRNDKAIERMIRIIKKALSSSS
B13: il2ra_site1_1z92_sap_23_mot_HHH_b1_04002_af2_000000251_0001_1_15_H_._HHH_b2_00568_0001_0000100008_0000001_0_0001_af2pred_dldesign_0_af2pred (protein)
chain: SMEKEARELLRHAPTPETLYNALKKLFSVNPDPEEKKAFADVCAAIARELGREDLVAATRRALLE
B14: il2ra_site2_2erj_sap_18_mot_HHH_b2_01457_af2_000000298_0001_23_40_H_._HHH_b1_06154_0001_0000100001_0000001_0_0001 (protein)
chain: SSSSSDELEEFIEELAEKLGLDEDAKRALEETLEHAKRLGVSEEEIKKFLEEWAKLVRGSSSSSS
B15: il2ra_site1_3nfp_normal_mot_HHH_b2_04366_af2_000000103_0001_1_19_H_._HHH_b1_00003_af2_0001_0000300013_0000001_0_af2pred_0001_af2pred (protein)
chain: SSSSDVEEFLEEIKEELREALEKGDARLADKIFREAVRELAKKGNPELAKELFEFLEELISSSSS
B16: il2ra_site2_2erj_sap_23_mot_HHH_b1_05749_af2_000000086_0001_23_39_H_._HHH_b2_05738_af2_0001_0000100008_0000001_0_0001 (protein)
chain: SSSSAYEYAARVTMRVIELAKEGDEEEAKRLLEEAEKYLEELGDEVALKYIELALEDLERNSSSS
B17: il2ra_site2_2erj_sap_28_mot_HHH_b1_03572_af2_000000164_0001_41_56_H_._HHH_b1_00072_0001_0000100006_0000001_0_0001_af2pred_0001_af2pred (protein)
chain: SSSSSSEAEELVERLVEELNLSEEEKELLEEAAKRLEEAGYDEELAEEILRLLVEALEKLSSSSS
B18: il2ra_site2_2erj_sap_23_mot_HHH_b1_06697_000000025_0001_41_54_H_._HHH_b2_07665_0001_0000100002_0000001_0_0001 (protein)
chain: SSSSDELEELQEELRELVKENDPHRAVEVVTEAFEIAREEDDPELHRIAWEMLRLLASLQSSSSS

Biological target: il2ra, P01589
Experiment: yeast display titration

Apparent Kd, inactive:
B1 no binding seen
B2 no binding seen
B3 no binding seen
B4 no binding seen
B5 no binding seen
B6 no binding seen
B7 no binding seen
B8 no binding seen
B9 no binding seen
B10 no binding seen
B11 no binding seen
B12 no binding seen
B13 no binding seen
B14 no binding seen
B15 > 619 nM
B16 no binding seen
B17 no binding seen
B18 no binding seen

No new results follow: an excerpt of the list.
Apparent Kd, inactive:
B11 no binding seen
B12 no binding seen
B13 no binding seen
B14 no binding seen
